# In all, about 330,000 compounds went through this assay and about 2,800 (0.85%) were called active. This list was built around the results that the source calls inconclusive (neither active nor inactive); the mix of calls is not that of the screen.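 The calls were made as follows: active = mean inhibition across replicates of 60% or more, whatever share of single replicates reaches that level; inconclusive = some that reach 60%, reason not given; inactive = mean inhibition across replicates below 60%.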
# Experiment: inhibitors of MITF-dependent TRPM1 promoter reporter, primary screen, cell-based, SK-MEL-5, single point, luciferase (AID 488899)
# Details: SK-MEL-5 TRPM1 promoter luciferase, 24 h; at 12.5 µM; active compounds read high
row,Structure (SMILES),inhibition
1,Cc1cccc(NC2=C(NC(=O)c3ccccc3)C(=O)c3ccccc3C2=O)c1,inconclusive: 60.5%
2,CCOC(=O)c1c(NC(=O)CSc2nnc3c(n2)[nH]c2ccccc23)sc2c1CCN(C)C2,inconclusive: 64.6%
3,CNC(CC(=O)c1ccc([N+](=O)[O-])cc1)C(Cl)(Cl)Cl (stereo not given),active: 90%
4,CCn1c(/C=C/Nc2ccccc2)[n+](CC)c2cc(Cl)c(Cl)cc21,inconclusive: 65.9%
5,CC(C)NC(=O)CCCn1cc([N+](=O)[O-])cn1,inactive: 3.09%
6,CCOC(=O)c1cc2sccc2n1CC(=O)N1c2ccccc2CC1C (stereo not given),active: 63.1%
7,CCC[n+]1c(C)sc2c3c(ccc21)CCCC3,active: 67.4%
8,CCOc1ccc2nc(NC3=NC(c4ccc(OC)cc4)CC(=O)N3)nc(C)c2c1 (stereo not given),inconclusive: 62.5%
9,Cc1ccn2c(Nc3ccccc3)c(-c3ccccn3)nc2c1,inconclusive: 64.5%
10,Cc1cc(NCCCCCCCNc2cc(C)nc3cc([N+](=O)[O-])ccc23)c2ccc([N+](=O)[O-])cc2n1,inconclusive: 62%
11,C=C1C(=O)C=C2CN(C(=O)c3ccccc3)[C@@](Cc3ccc(F)cc3)(C(=O)OC)[C@@H]12,active: 99.3%
12,CC(C)(C)c1nn(-c2ccccc2)c2[nH]c(=O)c(CNCc3ccco3)cc12,active: 67%
13,Cc1ccc2c(Cl)cc(Cl)c(O)c2n1,active: 72.9%
14,COc1cc(Nc2c3ccccc3nc3ccccc23)cc(OC)c1OC,inconclusive: 61.4%
15,CCOc1ccc(NC(=O)c2ccccc2OC)cc1,inactive: -18%
16,C#CCOCCOCCOCCNc1nc(N2CCN(C(=O)Cn3cc(CCCCN)nn3)CC2)nc(N2CCN(C(=O)Cn3cc(CC(C)O)nn3)CC2)n1 (stereo not given),inactive: 0.894%
17,Oc1cc(NCCN2CCOCC2)cc2cccnc12,inconclusive: 64.6%
18,COc1ccc(CCN(C)c2ncnc3sccc23)cc1OC,inactive: 0.58%
19,COc1ccccc1-n1c(-c2ccccc2)c[n+]2c1CCc1ccccc1-2,inconclusive: 60.5%
20,COC1C=CC=C(C)C(=O)NC2=CC(=O)C(N)=C(CC(C)CC(OC)C(O)C(C)C=C(C)C1OC(N)=O)C2=O (stereo not given),active: 64.9%
21,O=C(c1ccc([N+](=O)[O-])s1)N1CCN(c2cccc(Cl)c2)CC1,inconclusive: 60.4%
22,CCn1c(C)cc(C(=O)CSc2nnnn2C2CCCC2)c1C,inactive: -105%

row,Structure (SMILES),inhibition
1,COc1cccc2c1C(=O)C=C(C)C2=O,inconclusive: 64.5%
2,O=C(Cn1ncc2c([nH]c3ccccc32)c1=O)Nc1ccc(CN2CCCCC2)cc1,inconclusive: 62%
3,Cc1ccc(NC(=O)Cn2ncc(Cl)c(Cl)c2=O)cc1S(=O)(=O)N1CCCCC1,active: 97.2%
4,CCOc1cc(/C=C2/C(=O)ON=C2C)ccc1OCc1ccc(F)cc1,inconclusive: 61.2%
5,O=S(=O)(/N=C(/Sc1ccccc1)c1ccccc1)c1ccccc1,inconclusive: 66.4%
6,Fc1ccc(NC(=S)NNc2ncc(C(F)(F)F)cc2Cl)c(F)c1,inconclusive: 61.3%
7,CCC(=O)Nc1ccc(C(=O)Cn2ncc(Cl)c(Cl)c2=O)cc1,inconclusive: 65.8%
8,Cc1cccc(CS(=O)(=O)c2ncc(Cl)c(C(=O)NCc3ccc4c(c3)OCO4)n2)c1,inconclusive: 64%
9,O=C1C(Cl)=C(NCCc2ccccc2)C(=O)c2ccccc21,inconclusive: 61.2%
10,CCC(CC)C(=O)c1c[nH]c(C(=O)NCCOC)c1,inactive: 13.4%
11,O=C(CS(=O)c1ccc(C(F)(F)F)cc1[N+](=O)[O-])Oc1ccccc1 (stereo not given),active: 87.5%
12,COC(=O)C1=C(C)N(Cc2ccccc2)C(=NCc2ccc(OC)cc2)N[C@H]1c1cccc(F)c1,inconclusive: 61.3%
13,COc1ccc(/C=C/C(=O)c2cc(F)ccc2OC(=O)c2ccccc2)cc1OC,inconclusive: 60.2%
14,COC(=O)[C@@H]1C[C@]2(OC(=O)c3ccccc3)C=CC(=O)C[C@@H]2N1C(=O)OCc1ccccc1,inconclusive: 61.3%
15,COc1ccc(CCNC(=O)COC(=O)C23CC4CC(CC(Br)(C4)C2)C3)cc1,inactive: -3.07%
16,O=C(CNC(=O)c1ccco1)NCC(c1ccco1)N1CCCCC1 (stereo not given),inactive: -12.2%
17,O=C(Nc1nc2ccc([N+](=O)[O-])cc2s1)c1ccc(S(=O)(=O)N2CCCc3ccccc32)cc1,active: 75.6%
18,c1cnc2c(c1)ccc1cccnc12,inconclusive: 61%
19,Cc1ccc2c(c1)c(/C=C/c1cc[n+](C)cc1)c(C)n2C,inconclusive: 61.2%
20,O=[N+]([O-])c1ccc(C2=Nn3c(Cn4nnc5ccccc54)nnc3SC2)cc1,inactive: 1.41%
21,O=C(NN=Cc1c(O)ccc2ccccc12)c1ccc2c(c1)OCO2,inconclusive: 60%
22,Cc1cccc(C2=N/C(=C\c3cccs3)C(=O)O2)c1,inactive: -10.4%

row,Structure (SMILES),inhibition
1,N#Cc1ccccc1S(=O)(=O)N1CCN(S(=O)(=O)c2ccc(Br)c(C(=O)O)c2)CC1,inactive: 1.1%
2,CC(NC(=O)CCOc1ccccc1)c1ccccc1 (stereo not given),inactive: -4.36%
3,CCOc1ccc(-c2cc(C(=O)NCCCn3ccnc3)c3cc(Br)ccc3n2)cc1,inconclusive: 68.4%
4,O=C(Nc1cc(Cl)ccc1-n1cncn1)c1ccc([N+](=O)[O-])s1,active: 62.3%
5,COc1ccc(/C=C(\C#N)c2nc3ccc(C)cc3[nH]2)cc1Oc1ccc(C(F)(F)F)cc1[N+](=O)[O-],inconclusive: 64.2%
6,O=C(Cn1c2ccccc2c(=O)c2ccccc21)N/N=C/c1cc([N+](=O)[O-])ccc1N1CCCCC1,inconclusive: 60.2%
7,CCOC(=O)C1CCN(C(=O)c2cccc(S(=O)(=O)NCc3ccccc3)c2)CC1,inactive: -11.1%
8,CCC(=O)NC(c1ccc(C)cc1)c1ccc2cccnc2c1O (stereo not given),inconclusive: 61.4%
9,Cn1c(/C(C#N)=C(\O)c2ccc(Cl)s2)nc2ccccc21,inactive: -18%
10,NCCN1C(=O)S/C(=C\c2ccc3c(c2)OCO3)C1=O,inconclusive: 72.6%
11,Cc1cc(C)c(S(=O)(=O)Nc2ccc3c4c(cccc24)CC3)c(C)c1,inconclusive: 60.2%
12,O=C(Cc1cccs1)NC(c1ccccc1)c1ccccc1,inactive: -9.37%
13,Cc1cnc(NC(=O)c2nn(C)cc2[N+](=O)[O-])s1,inconclusive: 61.5%
14,O=S(=O)(/N=C(/Nc1nc2ccccc2s1)c1ccccc1)c1ccccc1,inactive: -49.4%
15,CCOc1cc(/C=N/Nc2cc(C)nc(-n3nc(C)cc3C)n2)ccc1O,inconclusive: 60.8%
16,O=C1c2cccc3c([N+](=O)[O-])ccc(c23)C(=O)N1c1nccs1,inconclusive: 60.3%
17,CCC(=O)Nc1cccc(C(=O)/C=C/c2cc(Br)ccc2OC)c1,active: 91%
18,O=C(c1ccc([N+](=O)[O-])s1)N1CCN(c2ccccn2)CC1,inconclusive: 60.4%
19,OCC1OC(n2cnc3c(NCc4ccco4)ncnc32)C(O)C1O (stereo not given),inconclusive: 61.2%
20,O=C(Nc1nc2cc3c(cc2s1)OCCO3)c1ccco1,inconclusive: 64.1%
21,Cc1ccccc1Oc1ccc2c(c1)[C@@H]1C[C@H](N(C)C(=O)Nc3cc(Cl)cc(Cl)c3)[C@H]([C@H](C)O)C(=O)N1CC2,inactive: -6.63%
22,Fc1ccc([C@@H]2CCNC[C@H]2COc2ccc3c(c2)OCO3)cc1,inconclusive: 65.2%

# Filtered by structure, the entries above containing bromine.
row,Structure (SMILES),inhibition
15,COc1ccc(CCNC(=O)COC(=O)C23CC4CC(CC(Br)(C4)C2)C3)cc1,inactive: -3.07%
1,N#Cc1ccccc1S(=O)(=O)N1CCN(S(=O)(=O)c2ccc(Br)c(C(=O)O)c2)CC1,inactive: 1.1%
3,CCOc1ccc(-c2cc(C(=O)NCCCn3ccnc3)c3cc(Br)ccc3n2)cc1,inconclusive: 68.4%
17,CCC(=O)Nc1cccc(C(=O)/C=C/c2cc(Br)ccc2OC)c1,active: 91%

# Continuation:

row,Structure (SMILES),inhibition
1,Oc1ccc(-c2n[nH]c(=S)n2-c2ccc3c(c2)OCCO3)c(O)c1,inactive: -2.41%
2,COc1ccc2nc(C)cc(SCC(=O)N/N=C/c3cccc4ccccc34)c2c1,inconclusive: 63.9%
3,Cc1nnc(N2CCCC(C(=O)Nc3cc(F)ccc3F)C2)c2nn(-c3ccccc3)c(C)c12 (stereo not given),inconclusive: 60.4%
4,O=C(Cc1cccs1)N/N=C/C=C/c1ccccc1,inactive: -3.45%
5,Cc1noc(C)c1COc1ccc(C(=O)Nc2cccnc2)cc1,inactive: 0.848%
6,COc1ccc(NC(=O)c2ccc(-c3ccc(-c4noc(C)n4)cc3C)cc2)cc1N1CCN(C)CC1,inconclusive: 60.1%
7,CCC(CO)Oc1cc(NCc2cccc(F)c2)c2ncn(C(C)C)c2c1 (stereo not given),inconclusive: 60.5%
8,CC1Sc2ccc(S(=O)(=O)CCC(=O)N3CCc4ccccc43)cc2NC1=O (stereo not given),inactive: 3.33%
9,O=C(c1ccc(N2CCCCC2)c([N+](=O)[O-])c1)N1CCOCC1,inactive: 6.17%
10,N#Cc1c2nc3ccccc3nc2n2cc(NC(=O)c3ccc(F)cc3)ccc12,inconclusive: 66%
11,CCOc1ccc(-c2c(C(=O)N/N=C/c3ccc(C)cc3)nnn2-c2nonc2N)cc1,inactive: 5.73%
12,Cc1ccc(S(=O)(=O)/N=C2/NC(=O)/C(=C\c3cc(Br)cc(Br)c3O)S2)cc1,inactive: 5.66%
13,CC(C)CC1Nc2ncnc(N3CCN(c4ccccc4)CC3)c2N(Cc2ccccc2)C1=O (stereo not given),inactive: 5.89%
14,Cn1cc(S(=O)(=O)CC(=O)Nc2ccc3c(c2)OCO3)c2ccccc21,inactive: 9.46%
15,COc1ccc(CNC(=O)C2(C)Cc3ccccc3C(=O)O2)cc1 (stereo not given),inactive: 13.6%
16,C#CCOCCOCCOCCNc1nc(N2CCN(C(=O)CCCCCCCCCCNC(=O)[C@H]([C@@H](C)CC)n3cc(CCCCCN)nn3)CC2)nc(N2CCN(C(=O)CCCCCCCCCCNC(=O)[C@H]([C@@H](C)CC)n3cc(CCCCN=C(N)N)nn3)CC2)n1,active: 98.7%
17,O=C(Nc1ccncc1)C1CC(=O)N(Cc2ccccc2)C1 (stereo not given),inactive: 5.86%
18,CC(C)NS(=O)(=O)c1ccc(NC(=O)C2CC3C=CC2C3)cc1 (stereo not given),inactive: -10.3%
19,O=[N+]([O-])c1ccc(C=Nc2ccc(Cl)c([N+](=O)[O-])c2)s1,active: 71.4%

# — PubChem BioAssay AID488899 (Broad Institute, 2010)
